Earlier results, collected in PMC10465233, “Lys-urea-Aad, Lys-urea-Cmc and Lys-urea-Cms as potential pharmacophores for the design of PSMA-targeted radioligands to reduce off-target uptake in kidneys and salivary glands” (Theranostics, 2023).
Like-named read-outs stand apart in the source and are kept apart here.

Assays:
[1] = parameters: method as in earlier work; conditions: cited from earlier work
LNCaP tumors = system: LNCaP tumors; parameters: method as in earlier work; conditions: cited from earlier work

O=C([O-])CN1CCN(CC(=O)[O-])CCN(CC(=O)NCC2CCC(C(=O)NC(Cc3ccc4ccccc4c3)C(=O)NCCCCC(NC(=O)NC(CCC(=O)O)C(=O)O)C(=O)O)CC2)CCN(CC(=O)[O-])CC1.[177Lu+3] (stereo not drawn) [[^177Lu]Lu-PSMA-617]
Organ dose ([1]; target organ Brain): 1.79E+00 mGy/MBq | Organ dose ([1]; target organ Heart): 1.90E+00 mGy/MBq | Organ dose ([1]; target organ Kidneys): 2.23E+02 mGy/MBq | Organ dose ([1]; target organ Large intestine): 2.42E+00 mGy/MBq | Organ dose ([1]; target organ Liver): 3.84E+00 mGy/MBq | Organ dose ([1]; target organ Lungs): 4.46E+00 mGy/MBq | Organ dose ([1]; target organ Pancreas): 3.60E+00 mGy/MBq | Organ dose ([1]; target organ Remainder of the body): 6.89E+00 mGy/MBq | Organ dose ([1]; target organ Skeleton): 1.25E+00 mGy/MBq | Organ dose ([1]; target organ Small intestine): 2.08E+00 mGy/MBq | Organ dose ([1]; target organ Spleen): 1.15E+01 mGy/MBq | Organ dose ([1]; target organ Stomach): 1.51E+00 mGy/MBq | Organ dose ([1]; target organ Testes): 3.04E+00 mGy/MBq | Organ dose ([1]; target organ Thyroid): 2.78E+00 mGy/MBq | Organ dose ([1]; target organ Urinary bladder): 5.76E+02 mGy/MBq | Radiation dose to LNCaP tumor (LNCaP tumors; sphere/tumor volume 0.01 mL): 3.07E+04 mGy/MBq | Radiation dose to LNCaP tumor (LNCaP tumors; sphere/tumor volume 0.1 mL): 3.21E+03 mGy/MBq | Radiation dose to LNCaP tumor (LNCaP tumors; sphere/tumor volume 0.5 mL): 6.51E+02 mGy/MBq | Radiation dose to LNCaP tumor (LNCaP tumors; sphere/tumor volume 1 mL): 3.28E+02 mGy/MBq | Radiation dose to LNCaP tumor (LNCaP tumors; sphere/tumor volume 2 mL): 1.65E+02 mGy/MBq | Radiation dose to LNCaP tumor (LNCaP tumors; sphere/tumor volume 4 mL): 8.28E+01 mGy/MBq | Radiation dose to LNCaP tumor (LNCaP tumors; sphere/tumor volume 6 mL): 5.53E+01 mGy/MBq | Radiation dose to LNCaP tumor (LNCaP tumors; sphere/tumor volume 8 mL): 4.15E+01 mGy/MBq | Radiation dose to LNCaP tumor (LNCaP tumors; sphere/tumor volume 10 mL): 3.33E+01 mGy/MBq | Radiation dose to LNCaP tumor (LNCaP tumors; sphere/tumor volume 20 mL): 1.67E+01 mGy/MBq | Radiation dose to LNCaP tumor (LNCaP tumors; sphere/tumor volume 40 mL): 8.38E+00 mGy/MBq | Radiation dose to LNCaP tumor (LNCaP tumors; sphere/tumor volume 60 mL): 5.60E+00 mGy/MBq | Radiation dose to LNCaP tumor (LNCaP tumors; sphere/tumor volume 80 mL): 4.21E+00 mGy/MBq | Radiation dose to LNCaP tumor (LNCaP tumors; sphere/tumor volume 100 mL): 3.37E+00 mGy/MBq | Radiation dose to LNCaP tumor (LNCaP tumors; sphere/tumor volume 300 mL): 1.13E+00 mGy/MBq | Radiation dose to LNCaP tumor (LNCaP tumors; sphere/tumor volume 400 mL): 8.54E-01 mGy/MBq | Radiation dose to LNCaP tumor (LNCaP tumors; sphere/tumor volume 500 mL): 6.85E-01 mGy/MBq | Radiation dose to LNCaP tumor (LNCaP tumors; sphere/tumor volume 600 mL): 5.72E-01 mGy/MBq | Radiation dose to LNCaP tumor (LNCaP tumors; sphere/tumor volume 1000 mL): 3.45E-01 mGy/MBq | Radiation dose to LNCaP tumor (LNCaP tumors; sphere/tumor volume 2000 mL): 1.75E-01 mGy/MBq | Radiation dose to LNCaP tumor (LNCaP tumors; sphere/tumor volume 3000 mL): 1.17E-01 mGy/MBq | Radiation dose to LNCaP tumor (LNCaP tumors; sphere/tumor volume 4000 mL): 8.86E-02 mGy/MBq | Radiation dose to LNCaP tumor (LNCaP tumors; sphere/tumor volume 5000 mL): 7.12E-02 mGy/MBq | Radiation dose to LNCaP tumor (LNCaP tumors; sphere/tumor volume 6000 mL): 5.96E-02 mGy/MBq
